This passage reports binding results from paper doi:10.1101/2023.04.20.537746.

Chains of the proteins cited; added tags and fusions are not shown. Residues count along the entry.
UniProt P35968, residues 20-1356: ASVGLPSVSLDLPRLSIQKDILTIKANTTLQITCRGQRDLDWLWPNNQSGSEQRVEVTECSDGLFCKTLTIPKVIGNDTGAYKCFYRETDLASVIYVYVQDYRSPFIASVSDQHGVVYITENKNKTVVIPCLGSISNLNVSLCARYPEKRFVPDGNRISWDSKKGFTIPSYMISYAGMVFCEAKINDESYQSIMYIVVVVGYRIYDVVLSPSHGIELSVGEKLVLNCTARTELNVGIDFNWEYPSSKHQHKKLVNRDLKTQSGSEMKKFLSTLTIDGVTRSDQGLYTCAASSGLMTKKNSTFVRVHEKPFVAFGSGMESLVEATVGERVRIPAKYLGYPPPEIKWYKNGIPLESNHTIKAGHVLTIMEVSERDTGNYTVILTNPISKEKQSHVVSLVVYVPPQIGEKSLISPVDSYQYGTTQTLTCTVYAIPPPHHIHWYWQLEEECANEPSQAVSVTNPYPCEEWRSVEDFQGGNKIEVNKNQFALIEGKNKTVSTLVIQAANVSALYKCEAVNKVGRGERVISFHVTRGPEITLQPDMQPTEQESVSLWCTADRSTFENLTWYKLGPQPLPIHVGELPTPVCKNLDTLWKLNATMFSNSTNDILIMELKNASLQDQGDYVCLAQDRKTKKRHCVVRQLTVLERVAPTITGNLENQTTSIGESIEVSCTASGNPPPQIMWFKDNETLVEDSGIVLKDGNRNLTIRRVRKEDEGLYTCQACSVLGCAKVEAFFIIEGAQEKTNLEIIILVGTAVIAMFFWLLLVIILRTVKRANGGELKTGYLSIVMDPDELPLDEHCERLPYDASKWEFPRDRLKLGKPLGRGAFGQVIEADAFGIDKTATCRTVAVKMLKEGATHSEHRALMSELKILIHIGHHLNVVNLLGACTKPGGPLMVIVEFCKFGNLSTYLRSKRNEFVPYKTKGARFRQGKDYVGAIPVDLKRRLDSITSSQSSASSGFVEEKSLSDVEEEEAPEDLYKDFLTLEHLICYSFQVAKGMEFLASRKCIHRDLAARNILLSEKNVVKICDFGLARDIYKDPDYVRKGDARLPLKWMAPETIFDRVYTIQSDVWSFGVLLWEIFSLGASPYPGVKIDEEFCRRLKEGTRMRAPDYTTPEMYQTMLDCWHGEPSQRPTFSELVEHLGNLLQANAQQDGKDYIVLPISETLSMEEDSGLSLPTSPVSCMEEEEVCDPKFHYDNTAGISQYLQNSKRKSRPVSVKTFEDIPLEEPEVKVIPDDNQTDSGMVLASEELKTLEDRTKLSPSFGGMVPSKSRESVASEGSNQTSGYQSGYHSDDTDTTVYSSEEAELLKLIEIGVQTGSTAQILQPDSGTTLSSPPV
UniProt P35918, residues 20-1345: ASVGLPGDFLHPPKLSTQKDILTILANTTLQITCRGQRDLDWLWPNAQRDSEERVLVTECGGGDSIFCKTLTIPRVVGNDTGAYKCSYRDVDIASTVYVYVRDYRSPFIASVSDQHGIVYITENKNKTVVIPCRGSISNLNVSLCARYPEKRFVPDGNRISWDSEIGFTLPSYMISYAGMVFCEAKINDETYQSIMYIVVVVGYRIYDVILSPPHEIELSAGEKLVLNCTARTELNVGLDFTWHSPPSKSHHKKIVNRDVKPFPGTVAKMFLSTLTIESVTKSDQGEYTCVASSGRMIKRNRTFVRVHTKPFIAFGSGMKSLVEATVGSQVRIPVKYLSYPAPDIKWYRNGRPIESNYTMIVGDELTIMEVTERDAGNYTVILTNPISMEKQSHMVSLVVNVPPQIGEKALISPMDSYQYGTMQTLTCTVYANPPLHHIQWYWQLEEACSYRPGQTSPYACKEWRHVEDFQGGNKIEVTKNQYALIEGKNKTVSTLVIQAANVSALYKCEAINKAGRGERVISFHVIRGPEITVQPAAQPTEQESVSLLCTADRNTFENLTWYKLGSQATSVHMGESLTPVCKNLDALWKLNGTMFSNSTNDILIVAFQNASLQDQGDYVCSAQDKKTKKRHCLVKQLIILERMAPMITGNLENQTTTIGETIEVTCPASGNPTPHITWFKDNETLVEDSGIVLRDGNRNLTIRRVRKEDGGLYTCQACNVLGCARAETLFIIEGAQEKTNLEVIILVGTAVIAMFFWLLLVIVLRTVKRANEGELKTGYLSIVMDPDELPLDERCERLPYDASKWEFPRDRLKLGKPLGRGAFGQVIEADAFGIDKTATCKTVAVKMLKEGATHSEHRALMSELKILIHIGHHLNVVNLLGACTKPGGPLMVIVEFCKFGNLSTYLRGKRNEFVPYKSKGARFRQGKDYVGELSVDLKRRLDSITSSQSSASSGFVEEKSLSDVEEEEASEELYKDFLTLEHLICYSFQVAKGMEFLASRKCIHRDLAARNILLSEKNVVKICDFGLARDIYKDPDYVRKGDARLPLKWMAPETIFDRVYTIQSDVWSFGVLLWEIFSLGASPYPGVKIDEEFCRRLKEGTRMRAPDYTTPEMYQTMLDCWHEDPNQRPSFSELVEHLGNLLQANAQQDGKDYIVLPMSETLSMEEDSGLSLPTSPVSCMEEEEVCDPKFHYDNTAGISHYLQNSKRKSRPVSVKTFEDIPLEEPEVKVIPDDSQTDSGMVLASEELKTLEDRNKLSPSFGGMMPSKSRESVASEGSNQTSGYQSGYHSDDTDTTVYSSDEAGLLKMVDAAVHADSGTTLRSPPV

These are yes or no findings as the source states them, for the method shown. In cells and extracts the contact can be indirect. Some entries that bind do so weakly or less than the wild type.

Experiment [1] deals with VEGFR-2 (human, endogenous in HUVECs) (human (endogenous in HUVECs)) (UniProt P35968). Put plainly: co-IP.
For experiment [2], the target named is VEGFR-2 (mouse, endogenous in mPMVECs) (mouse (endogenous in mPMVECs)) (UniProt P35918). Put plainly: co-IP.

B1: DCBLD1 (Discoidin, CUB, and LCCL domain-containing protein 1), human, endogenous in HUVECs (protein, UniProt Q8N8Z6 35-715)
chain: EELGDGCGHLVTYQDSGTMTSKNYPGTYPNHTVCEKTITVPKGKRLILRLGDLDIESQTCASDYLLFTSSSDQYGPYCGSMTVPKELLLNTSEVTVRFESGSHISGRGFLLTYASSDHPDLITCLERASHYLKTEYSKFCPAGCRDVAGDISGNMVDGYRDTSLLCKAAIHAGIIADELGGQISVLQRKGISRYEGILANGVLSRDGSLSDKRFLFTSNGCSRSLSFEPDGQIRASSSWQSVNESGDQVHWSPGQARLQDQGPSWASGDSSNNHKPREWLEIDLGEKKKITGIRTTGSTQSNFNFYVKSFVMNFKNNNSKWKTYKGIVNNEEKVFQGNSNFRDPVQNNFIPPIVARYVRVVPQTWHQRIALKVELIGCQITQGNDSLVWRKTSQSTSVSTKKEDETITRPIPSEETSTGINITTVAIPLVLLVVLVFAGMGIFAAFRKKKKKGSPYGSAEAQKTDCWKQIKYPFARHQSAEFTISYDNEKEMTQKLDLITSDMADYQQPLMIGTGTVTRKGSTFRPMDTDAEEAGVSTDAGGHYDCPQRAGRHEYALPLAPPEPEYATPIVERHVLRAHTFSAQSGYRVPGPQPGHKHSLSSGGFSPVAGVGAQDGDYQRPHSAQPADRGYDRPKAVSALATESGHPDSQKPPTHPGTSDSYSAPRDCLTPLNQTAMTALL
For B1, the binding result in experiment [1] is given as “binds”.

B2: Protein tyrosine phosphatase 1B (PTP1B), endogenous in mPMVECs (enzyme, UniProt P35821 1-432)
chain: MEMEKEFEEIDKAGNWAAIYQDIRHEASDFPCKVAKLPKNKNRNRYRDVSPFDHSRIKLHQEDNDYINASLIKMEEAQRSYILTQGPLPNTCGHFWEMVWEQKSRGVVMLNRIMEKGSLKCAQYWPQQEEKEMVFDDTGLKLTLISEDVKSYYTVRQLELENLTTKETREILHFHYTTWPDFGVPESPASFLNFLFKVRESGSLSLEHGPIVVHCSAGIGRSGTFCLADTCLLLMDKRKDPSSVDIKKVLLEMRRFRMGLIQTADQLRFSYLAVIEGAKFIMGDSSVQDQWKELSREDLDLPPEHVPPPPRPPKRTLEPHNGKCKELFSSHQWVSEETCGDEDSLAREEGRAQSSAMHSVSSMSPDTEVRRRMVGGGLQSAQASVPTEEELSSTEEEHKAHWPSHWKPFLVNVCMATLLATGAYLCYRVCFH
As for B2, the binding result in experiment [2] is recorded as “binds”.
